# Measured values from the supplement of paper PMC12819154, “High-throughput peptide-centric local stability assay extends protein–ligand identification to membrane proteins, tissues and bacteria” (Nature Structural & Molecular Biology, 2025).
# By UniProt entry, the sequences of proteins in these tests, tags left out. Where a name states a change or a piece, a line headed by the entry shows the natural chain unless it says otherwise.
# UniProt Q9BU61: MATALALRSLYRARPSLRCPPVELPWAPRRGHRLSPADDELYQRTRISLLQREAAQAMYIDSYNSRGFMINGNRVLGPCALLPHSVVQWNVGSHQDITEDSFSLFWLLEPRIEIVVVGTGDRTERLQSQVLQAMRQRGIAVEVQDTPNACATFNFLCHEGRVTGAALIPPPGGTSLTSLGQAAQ
# UniProt Q9BRP4: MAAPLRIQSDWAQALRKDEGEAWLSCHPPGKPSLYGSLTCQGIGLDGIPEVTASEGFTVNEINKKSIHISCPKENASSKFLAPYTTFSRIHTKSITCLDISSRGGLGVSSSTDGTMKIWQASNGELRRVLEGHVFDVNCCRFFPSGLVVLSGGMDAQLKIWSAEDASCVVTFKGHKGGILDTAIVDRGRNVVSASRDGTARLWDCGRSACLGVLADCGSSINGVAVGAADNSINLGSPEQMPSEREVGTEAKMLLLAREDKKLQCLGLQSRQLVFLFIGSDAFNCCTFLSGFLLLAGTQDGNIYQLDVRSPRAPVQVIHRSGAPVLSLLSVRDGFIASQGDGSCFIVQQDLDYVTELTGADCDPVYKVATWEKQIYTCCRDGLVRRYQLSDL
# UniProt Q99848: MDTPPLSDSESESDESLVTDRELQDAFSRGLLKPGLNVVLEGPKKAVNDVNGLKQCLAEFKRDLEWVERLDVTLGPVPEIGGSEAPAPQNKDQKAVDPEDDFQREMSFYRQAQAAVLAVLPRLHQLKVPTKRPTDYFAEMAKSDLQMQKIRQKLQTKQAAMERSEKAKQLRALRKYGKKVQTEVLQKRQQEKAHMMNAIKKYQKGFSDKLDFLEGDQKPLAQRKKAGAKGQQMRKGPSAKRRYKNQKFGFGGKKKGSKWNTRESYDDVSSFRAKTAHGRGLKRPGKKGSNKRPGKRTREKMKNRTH
# UniProt Q9BQP7: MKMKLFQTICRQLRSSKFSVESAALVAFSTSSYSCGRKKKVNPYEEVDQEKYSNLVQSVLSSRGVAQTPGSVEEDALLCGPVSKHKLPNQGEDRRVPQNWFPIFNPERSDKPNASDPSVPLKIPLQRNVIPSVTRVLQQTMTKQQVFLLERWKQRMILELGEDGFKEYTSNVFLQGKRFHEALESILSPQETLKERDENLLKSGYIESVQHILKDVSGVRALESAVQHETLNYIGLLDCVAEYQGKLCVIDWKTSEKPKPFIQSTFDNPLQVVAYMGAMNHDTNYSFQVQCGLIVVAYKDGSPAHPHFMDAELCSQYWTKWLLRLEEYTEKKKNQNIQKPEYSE
# UniProt Q9BPZ7, whole entry: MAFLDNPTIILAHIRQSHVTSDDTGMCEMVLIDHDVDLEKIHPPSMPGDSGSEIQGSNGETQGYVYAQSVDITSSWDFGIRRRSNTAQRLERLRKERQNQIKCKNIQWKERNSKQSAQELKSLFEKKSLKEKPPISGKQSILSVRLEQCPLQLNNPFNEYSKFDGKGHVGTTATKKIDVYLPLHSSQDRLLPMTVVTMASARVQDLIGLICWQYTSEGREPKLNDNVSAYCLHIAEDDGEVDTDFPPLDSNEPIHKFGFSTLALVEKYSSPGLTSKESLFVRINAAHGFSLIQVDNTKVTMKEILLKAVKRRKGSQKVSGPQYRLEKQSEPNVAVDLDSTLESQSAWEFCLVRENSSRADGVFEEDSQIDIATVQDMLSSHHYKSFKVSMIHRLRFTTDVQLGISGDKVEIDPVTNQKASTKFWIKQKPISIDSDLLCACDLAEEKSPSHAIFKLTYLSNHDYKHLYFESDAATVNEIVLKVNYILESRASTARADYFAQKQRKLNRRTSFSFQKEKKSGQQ
# UniProt Q9BQI0: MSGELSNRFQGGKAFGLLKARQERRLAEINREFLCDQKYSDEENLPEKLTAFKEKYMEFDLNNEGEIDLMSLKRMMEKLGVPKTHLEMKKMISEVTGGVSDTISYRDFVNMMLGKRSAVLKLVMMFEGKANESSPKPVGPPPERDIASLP
# UniProt Q99807: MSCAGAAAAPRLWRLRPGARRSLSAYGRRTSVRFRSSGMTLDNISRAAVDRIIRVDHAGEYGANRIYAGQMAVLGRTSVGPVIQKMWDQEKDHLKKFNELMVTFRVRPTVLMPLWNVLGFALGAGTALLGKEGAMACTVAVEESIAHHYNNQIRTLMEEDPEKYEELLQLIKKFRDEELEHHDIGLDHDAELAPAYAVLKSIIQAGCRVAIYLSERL
# UniProt Q9BUJ2: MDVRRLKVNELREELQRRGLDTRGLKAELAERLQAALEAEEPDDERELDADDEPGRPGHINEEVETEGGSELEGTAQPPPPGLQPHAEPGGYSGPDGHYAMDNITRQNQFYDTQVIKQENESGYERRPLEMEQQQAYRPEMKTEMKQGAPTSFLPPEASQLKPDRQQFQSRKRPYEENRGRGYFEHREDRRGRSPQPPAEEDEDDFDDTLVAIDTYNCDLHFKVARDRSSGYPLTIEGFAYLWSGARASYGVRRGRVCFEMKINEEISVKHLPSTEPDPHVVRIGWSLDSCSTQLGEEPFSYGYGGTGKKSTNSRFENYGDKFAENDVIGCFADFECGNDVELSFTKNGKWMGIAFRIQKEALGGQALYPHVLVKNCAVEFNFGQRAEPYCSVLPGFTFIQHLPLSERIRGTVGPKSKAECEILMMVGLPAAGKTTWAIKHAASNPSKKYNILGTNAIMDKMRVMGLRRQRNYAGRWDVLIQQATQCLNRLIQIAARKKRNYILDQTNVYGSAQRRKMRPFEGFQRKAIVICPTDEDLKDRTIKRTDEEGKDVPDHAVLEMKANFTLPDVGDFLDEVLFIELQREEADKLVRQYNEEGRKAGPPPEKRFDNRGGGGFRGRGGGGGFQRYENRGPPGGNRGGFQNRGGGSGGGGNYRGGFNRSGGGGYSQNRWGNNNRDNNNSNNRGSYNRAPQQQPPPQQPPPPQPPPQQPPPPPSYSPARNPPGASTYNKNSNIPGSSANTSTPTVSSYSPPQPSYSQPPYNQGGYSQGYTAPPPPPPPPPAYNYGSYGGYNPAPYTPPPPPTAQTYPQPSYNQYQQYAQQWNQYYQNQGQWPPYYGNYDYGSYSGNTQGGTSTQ
# UniProt Q9BWE0: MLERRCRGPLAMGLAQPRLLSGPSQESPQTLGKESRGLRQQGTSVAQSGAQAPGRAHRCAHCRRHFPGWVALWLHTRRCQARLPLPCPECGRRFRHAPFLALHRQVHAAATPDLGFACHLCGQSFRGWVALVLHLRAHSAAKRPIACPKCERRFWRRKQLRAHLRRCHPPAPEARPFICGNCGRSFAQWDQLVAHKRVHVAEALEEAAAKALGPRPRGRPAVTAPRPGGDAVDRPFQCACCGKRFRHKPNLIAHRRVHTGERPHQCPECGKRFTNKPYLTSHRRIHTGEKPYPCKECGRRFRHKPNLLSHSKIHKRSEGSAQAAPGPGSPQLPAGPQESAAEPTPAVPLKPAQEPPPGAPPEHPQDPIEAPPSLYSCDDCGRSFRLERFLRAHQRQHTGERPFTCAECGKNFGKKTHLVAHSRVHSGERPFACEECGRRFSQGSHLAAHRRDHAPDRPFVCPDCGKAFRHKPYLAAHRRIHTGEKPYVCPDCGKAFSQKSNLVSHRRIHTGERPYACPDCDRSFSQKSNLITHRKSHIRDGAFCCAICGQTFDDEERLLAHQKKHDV
# UniProt Q9BT23: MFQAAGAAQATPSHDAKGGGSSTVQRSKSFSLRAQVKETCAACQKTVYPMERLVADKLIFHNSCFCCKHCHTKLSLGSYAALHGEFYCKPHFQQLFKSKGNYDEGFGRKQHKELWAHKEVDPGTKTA
# UniProt Q9BTK6, whole entry: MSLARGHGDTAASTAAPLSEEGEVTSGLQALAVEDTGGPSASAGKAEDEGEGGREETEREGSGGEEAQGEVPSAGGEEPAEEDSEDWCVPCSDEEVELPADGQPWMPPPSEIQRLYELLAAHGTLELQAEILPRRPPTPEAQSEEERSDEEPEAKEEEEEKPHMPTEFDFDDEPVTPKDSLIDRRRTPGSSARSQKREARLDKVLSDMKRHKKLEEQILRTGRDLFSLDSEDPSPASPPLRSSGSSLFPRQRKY
# UniProt Q9BTC0, whole entry: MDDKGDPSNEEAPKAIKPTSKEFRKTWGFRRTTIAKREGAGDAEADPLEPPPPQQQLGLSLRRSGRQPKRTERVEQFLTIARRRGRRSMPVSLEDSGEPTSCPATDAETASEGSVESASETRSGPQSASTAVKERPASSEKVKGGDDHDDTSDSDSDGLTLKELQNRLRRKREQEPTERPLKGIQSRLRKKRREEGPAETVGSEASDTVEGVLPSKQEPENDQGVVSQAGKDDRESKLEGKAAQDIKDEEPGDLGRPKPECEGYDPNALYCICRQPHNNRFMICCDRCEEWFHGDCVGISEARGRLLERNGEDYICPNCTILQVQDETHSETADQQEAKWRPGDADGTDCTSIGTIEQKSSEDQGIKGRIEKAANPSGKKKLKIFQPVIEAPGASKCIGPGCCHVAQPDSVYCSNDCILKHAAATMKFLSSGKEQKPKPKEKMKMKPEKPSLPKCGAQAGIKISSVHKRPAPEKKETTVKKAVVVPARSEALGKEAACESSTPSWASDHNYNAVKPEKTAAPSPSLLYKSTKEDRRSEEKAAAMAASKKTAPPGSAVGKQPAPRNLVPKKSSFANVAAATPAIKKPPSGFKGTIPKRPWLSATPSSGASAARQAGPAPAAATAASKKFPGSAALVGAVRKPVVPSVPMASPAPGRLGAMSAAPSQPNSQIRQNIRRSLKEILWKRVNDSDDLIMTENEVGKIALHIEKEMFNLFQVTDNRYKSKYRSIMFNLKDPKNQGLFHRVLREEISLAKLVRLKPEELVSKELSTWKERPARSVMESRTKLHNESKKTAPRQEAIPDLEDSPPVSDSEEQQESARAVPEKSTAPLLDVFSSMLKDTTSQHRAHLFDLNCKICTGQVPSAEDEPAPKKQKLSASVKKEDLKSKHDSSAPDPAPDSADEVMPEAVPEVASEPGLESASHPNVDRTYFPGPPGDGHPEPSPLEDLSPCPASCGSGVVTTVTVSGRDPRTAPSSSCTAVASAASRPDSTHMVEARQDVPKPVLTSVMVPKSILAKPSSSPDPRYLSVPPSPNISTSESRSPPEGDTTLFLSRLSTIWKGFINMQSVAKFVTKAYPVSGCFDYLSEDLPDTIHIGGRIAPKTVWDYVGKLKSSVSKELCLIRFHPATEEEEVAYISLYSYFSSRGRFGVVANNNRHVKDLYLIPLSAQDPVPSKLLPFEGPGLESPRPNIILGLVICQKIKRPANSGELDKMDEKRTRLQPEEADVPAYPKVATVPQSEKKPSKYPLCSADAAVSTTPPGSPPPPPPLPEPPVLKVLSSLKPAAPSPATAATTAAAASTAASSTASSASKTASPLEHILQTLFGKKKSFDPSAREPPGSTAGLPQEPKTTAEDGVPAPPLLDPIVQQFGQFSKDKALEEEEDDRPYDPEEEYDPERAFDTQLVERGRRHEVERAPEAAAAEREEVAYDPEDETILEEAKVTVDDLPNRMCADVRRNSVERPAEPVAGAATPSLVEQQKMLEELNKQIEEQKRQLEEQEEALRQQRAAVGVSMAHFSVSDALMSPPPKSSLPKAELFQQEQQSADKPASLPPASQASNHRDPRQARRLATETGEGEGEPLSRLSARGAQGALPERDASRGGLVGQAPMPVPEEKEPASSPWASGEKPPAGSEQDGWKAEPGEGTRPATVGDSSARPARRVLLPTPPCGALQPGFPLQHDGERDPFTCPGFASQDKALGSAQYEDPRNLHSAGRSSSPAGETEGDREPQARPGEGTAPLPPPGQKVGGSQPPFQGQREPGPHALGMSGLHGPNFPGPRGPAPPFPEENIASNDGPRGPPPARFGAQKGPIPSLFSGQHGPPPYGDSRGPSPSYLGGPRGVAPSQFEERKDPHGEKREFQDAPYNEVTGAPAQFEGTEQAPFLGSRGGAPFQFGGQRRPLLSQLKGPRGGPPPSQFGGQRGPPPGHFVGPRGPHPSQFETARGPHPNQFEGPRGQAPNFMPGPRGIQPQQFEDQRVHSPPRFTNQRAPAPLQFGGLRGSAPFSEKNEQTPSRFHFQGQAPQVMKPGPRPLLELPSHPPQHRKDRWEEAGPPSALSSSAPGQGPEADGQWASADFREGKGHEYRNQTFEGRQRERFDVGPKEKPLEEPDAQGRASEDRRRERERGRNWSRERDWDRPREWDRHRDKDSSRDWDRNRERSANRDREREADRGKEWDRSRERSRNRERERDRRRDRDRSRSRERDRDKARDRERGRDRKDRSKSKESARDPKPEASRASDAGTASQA
# UniProt Q9BSD7: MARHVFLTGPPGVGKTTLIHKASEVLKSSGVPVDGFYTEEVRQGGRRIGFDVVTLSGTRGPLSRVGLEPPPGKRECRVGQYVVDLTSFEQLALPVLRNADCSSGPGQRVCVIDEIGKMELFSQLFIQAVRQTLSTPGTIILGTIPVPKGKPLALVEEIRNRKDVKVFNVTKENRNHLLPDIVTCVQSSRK
# UniProt Q9BSU3: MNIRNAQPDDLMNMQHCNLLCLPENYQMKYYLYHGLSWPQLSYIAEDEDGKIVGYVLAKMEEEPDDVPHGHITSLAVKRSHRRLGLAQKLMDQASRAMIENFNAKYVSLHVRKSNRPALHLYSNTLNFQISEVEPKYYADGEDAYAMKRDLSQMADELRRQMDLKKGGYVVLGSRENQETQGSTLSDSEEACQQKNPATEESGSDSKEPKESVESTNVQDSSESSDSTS
# This is one part of the list. Most values lie at the level of the controls, where differences are scatter.
# Compound: CN[C@@H]1C[C@H]2O[C@@](C)([C@@H]1OC)n1c3ccccc3c3c4c(c5c6ccccc6n2c5c31)C(=O)NC4 [staurosporine]
# Test: log2 fold change of tryptic peptide abundance, ligand vs vehicle (limited proteolysis) (log2 ratio); higher = more trypsin-susceptible (destabilized)
# Settings: ligand concentration: 20 uM; sample: K562 cleared lysate; digestion: 4 min, 22 C (HT-PELSA RT4min, Orbitrap Astral)
row,Target,log2 fold change
1,"CCT7 (peptide sequence: KVQGGALEDSQLVAGVAFK, peptide start residue: 199) (UniProt Q99832)",-0.289
2,"NEU1 (peptide sequence: QIGSVDTFR, peptide start residue: 70) (UniProt Q99519)",-0.42
3,"UniProt Q9BU61 (peptide sequence: LSPADDELYQR, peptide start residue: 34)",-0.03
4,"PAAF1 (peptide sequence: GGLGVSSSTDGTMK, peptide start residue: 104) (UniProt Q9BRP4)",-0.311
5,"EIF3C (peptide sequence: GCILTLVERMDEEFTK, peptide start residue: 442) (UniProt Q99613)",0.314
6,"ARPC5L (peptide sequence: ERAQGVVLK, peptide start residue: 75) (UniProt Q9BPX5)",0.221
7,"ELAC2 (peptide sequence: VPLFSPNFSEK, peptide start residue: 732) (UniProt Q9BQ52)",0.217
8,"EBNA1BP2 (peptide sequence: SDLQMQK, peptide start residue: 143) (UniProt Q99848)",-0.333
9,"UniProt Q99590 (peptide sequence: TEELIESPK, peptide start residue: 602)",0.719
10,"UniProt Q9BQP7 (peptide sequence: QQVFLLER, peptide start residue: 144)",0.157
11,"RUSC1 (peptide sequence: FHAFILGLLNTK, peptide start residue: 596) (UniProt Q9BVN2)",-0.391
12,"UniProt Q9BUR4 (peptide sequence: GQGGTEGGVGELI, peptide start residue: 536)",0.0926
13,"MAPKAP1 (peptide sequence: INAAHGFSLIQVDNTK, peptide start residue: 283) (UniProt Q9BPZ7)",-0.244
14,"DSCC1 (peptide sequence: QTIGALLTK, peptide start residue: 365) (UniProt Q9BVC3)",0.281
15,"MTR (peptide sequence: EAMHGVFLYHAIK, peptide start residue: 592) (UniProt Q99707)",0.341
16,"NUP88 (peptide sequence: CFVEHILCTKPLPCR, peptide start residue: 447) (UniProt Q99567)",-0.289
17,"AIF1L (peptide sequence: LVMMFEGK, peptide start residue: 122) (UniProt Q9BQI0)",0.574
18,"VAMP8 (peptide sequence: NKTEDLEATSEHFK, peptide start residue: 46) (UniProt Q9BV40)",-0.0691
19,"GINS3 (peptide sequence: LELPLWLAK, peptide start residue: 66) (UniProt Q9BRX5)",0.445

# Taken from above.
# log2 fold change with VAMP8 (peptide sequence: NKTEDLEATSEHFK, peptide start residue: 46) (UniProt Q9BV40) reads -0.0691
# log2 fold change with CCT7 (peptide sequence: KVQGGALEDSQLVAGVAFK, peptide start residue: 199) (UniProt Q99832) reads -0.289

# Later entries:

row,Target,log2 fold change
1,"SARG (peptide sequence: TVTESSSSHPPEPQGLGLR, peptide start residue: 110) (UniProt Q9BW04)",0.536
2,"ZNF670 (peptide sequence: STYLGIHER, peptide start residue: 265) (UniProt Q9BS34)",0.408
3,"SH3GL3 (peptide sequence: MSVAGLKK, peptide start residue: 1) (UniProt Q99963)",0.86
4,"COQ7 (peptide sequence: TSVGPVIQK, peptide start residue: 77) (UniProt Q99807)",0.293
5,"CABLES2 (peptide sequence: FLYPTNALVTHK, peptide start residue: 245) (UniProt Q9BTV7)",-0.189
6,"HNRNPUL1 (peptide sequence: LKVNELR, peptide start residue: 6) (UniProt Q9BUJ2)",-0.118
7,"REPIN1 (peptide sequence: VHTGERPHQCPECGK, peptide start residue: 257) (UniProt Q9BWE0)",-1.21
8,"UniProt Q9BQE4 (peptide sequence: AAAAVEPDVVVKR, peptide start residue: 66)",-0.299
9,"LIMD2 (peptide sequence: GNYDEGFGR, peptide start residue: 100) (UniProt Q9BT23)",-0.106
10,"CCM2 (peptide sequence: GIITDSFGR, peptide start residue: 379) (UniProt Q9BSQ5)",-0.119
11,"UniProt Q9BTK6 (peptide sequence: SSGSSLFPR, peptide start residue: 242)",0.0833
12,"UniProt Q9BQE5 (peptide sequence: ELEDHIR, peptide start residue: 91)",0.585
13,"CITED2 (peptide sequence: FPDGTNGLHHHPAHR, peptide start residue: 13) (UniProt Q99967)",-0.144
14,"DUSP23 (peptide sequence: FVQIVDEANAR, peptide start residue: 77) (UniProt Q9BVJ7)",0.442
15,"DIDO1 (peptide sequence: ERDWDRPR, peptide start residue: 2126) (UniProt Q9BTC0)",0.95
16,"UniProt Q9BTV6 (peptide sequence: GASELPTPCHECR, peptide start residue: 369)",-0.181
17,"UniProt Q9BSD7 (peptide sequence: IGFDVVTLSGTR, peptide start residue: 48)",-0.297
18,"NAA11 (peptide sequence: DLSQMADELR, peptide start residue: 150) (UniProt Q9BSU3)",-0.368
